{"source": "PubChem BioAssay AID602196 (INSERM, 2012)", "screen": "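Genes whose knock-down alters cisplatin killing of lung cancer cells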", "cell system": "human A549 lung cancer cells", "reagent": "siRNA pair against human genes", "duration": "48 h transfection before cisplatin; time from cisplatin to read-out not stated", "conditions": "cisplatin at a dose killing half of control-siRNA cells; exact dose and duration not given", "detection": "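Shift in cisplatin death relative to control siRNA, from -50 (all cells die) to +50 (no cells die); siRNAs harmful on their own scored 0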", "direction": "two-siRNA summed score (-2 to +2): higher = both siRNAs protect from cisplatin killing; -2 means both sensitise", "call rule": "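siRNAs harmful alone (LDH or WST-1) get 0; others get +1 for less and -1 for more cisplatin killing; genes are active when the two siRNAs give the same sign, summing to ±2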", "meaning of the calls": "active = both siRNAs shift cisplatin killing the same way; inactive = no consistent shift, or siRNA harmful alone", "note": "The whole screen tested about 23,000 reagents; shown is a random part of them. 455 of all reagents (2%) count as active. 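Active includes both protection and sensitisation; some change values fall well beyond the stated -50 to +50 range.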 Not all columns of the deposit are shown. The record does not give: the amount of reagent."}
The first 3 records as a preview:
{"gene": "ACAD11", "two-siRNA summed score (-2 to +2)": 1, "activity call": "inactive"}
{"gene": "RMP64", "two-siRNA summed score (-2 to +2)": 0, "activity call": "inactive"}
{"gene": "LY6G6C", "two-siRNA summed score (-2 to +2)": 0, "activity call": "inactive"}

The listing, from the start:
{"gene": "ACAD11", "two-siRNA summed score (-2 to +2)": 1, "activity call": "inactive"}
{"gene": "RMP64", "two-siRNA summed score (-2 to +2)": 0, "activity call": "inactive"}
{"gene": "LY6G6C", "two-siRNA summed score (-2 to +2)": 0, "activity call": "inactive"}
{"gene": "VCF2", "two-siRNA summed score (-2 to +2)": 0, "activity call": "inactive"}
{"gene": "PSMC3", "two-siRNA summed score (-2 to +2)": 1, "activity call": "inactive"}
{"gene": "LOC389892", "two-siRNA summed score (-2 to +2)": 1, "activity call": "inactive"}
{"gene": "LOC400572", "two-siRNA summed score (-2 to +2)": 0, "activity call": "inactive"}
{"gene": "LACTB2", "two-siRNA summed score (-2 to +2)": 0, "activity call": "inactive"}
{"gene": "OR2A12", "two-siRNA summed score (-2 to +2)": 0, "activity call": "inactive"}
{"gene": "SLC5A3", "two-siRNA summed score (-2 to +2)": 0, "activity call": "inactive"}
{"gene": "LOC442728", "two-siRNA summed score (-2 to +2)": 2, "activity call": "active"}
{"gene": "ZNF788P", "two-siRNA summed score (-2 to +2)": 0, "activity call": "inactive"}
{"gene": "CEP85", "two-siRNA summed score (-2 to +2)": 0, "activity call": "inactive"}
{"gene": "SV2B", "two-siRNA summed score (-2 to +2)": 1, "activity call": "inactive"}
{"gene": "LINC00597", "two-siRNA summed score (-2 to +2)": 0, "activity call": "inactive"}
{"gene": "NDUFAF4P2", "two-siRNA summed score (-2 to +2)": 0, "activity call": "inactive"}
{"gene": "UGGT1", "two-siRNA summed score (-2 to +2)": 0, "activity call": "inactive"}
{"gene": "TRIM43", "two-siRNA summed score (-2 to +2)": 0, "activity call": "inactive"}
{"gene": "PRXL2A", "two-siRNA summed score (-2 to +2)": 0, "activity call": "inactive"}
{"gene": "LOC440972", "two-siRNA summed score (-2 to +2)": 0, "activity call": "inactive"}
{"gene": "OR2D3", "two-siRNA summed score (-2 to +2)": 0, "activity call": "inactive"}
{"gene": "LOC389822", "two-siRNA summed score (-2 to +2)": 0, "activity call": "inactive"}
{"gene": "LOC402530", "two-siRNA summed score (-2 to +2)": 0, "activity call": "inactive"}
{"gene": "ALK", "two-siRNA summed score (-2 to +2)": 2, "activity call": "active"}
{"gene": "TSGA10IP", "two-siRNA summed score (-2 to +2)": 1, "activity call": "inactive"}
{"gene": "LOC391162", "two-siRNA summed score (-2 to +2)": -1, "activity call": "inactive"}
{"gene": "MYL12BP2", "two-siRNA summed score (-2 to +2)": 0, "activity call": "inactive"}
{"gene": "FUT5", "two-siRNA summed score (-2 to +2)": 0, "activity call": "inactive"}
{"gene": "LOC402670", "two-siRNA summed score (-2 to +2)": 0, "activity call": "inactive"}
{"gene": "PREX1", "two-siRNA summed score (-2 to +2)": 0, "activity call": "inactive"}
{"gene": "LOC388616", "two-siRNA summed score (-2 to +2)": 0, "activity call": "inactive"}
